The reference is the same well before dosing, and untreated signal decays as well.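 Fibroblast labels denote human fibroblasts, mainly primary ones from uterus (C12385, HUF), lung (H6013), bone (Hs27A), adrenal (HADF) and skin (WS1), plus mammary HMF and breast cancer-associated Hs343T. Cancer cells are basal-like or mesenchymal-like triple-negative breast cancer lines. A hit is a response shift exceeding 3x replicate standard deviation. The tissue of the other fibroblasts is not given here.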
Test system: Hs578T
Assay: relative JC-1 red fluorescence (viability) vs pre-drug, coculture with fibroblast (fraction); higher = more viable cancer cells
Procedure: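 JC-1 labelled TNBC cells cocultured 1:1 (1,500 cells each) with CellTrace Violet stained primary or stromal fibroblasts in 384-well plates in FluoroBrite medium, treated with one of 42 anticancer drugs at 0.1, 1, 10 or 100 uM. JC-1 red fluorescence (mitochondrial integrity in cancer cells only) was read by plate reader every 8 h for 72 h. Values are normalised to each well's pre-drug value. The stock of one drug was tenfold lower, so its dose labels may be too high.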

CCc1c2c(nc3ccc(OC(=O)N4CCC(N5CCCCC5)CC4)cc13)-c1cc3c(c(=O)n1C2)COC(=O)[C@]3(O)CC [Irinotecan]
relative JC-1 red fluorescence
Conditions | 8 h | 16 h | 24 h | 32 h | 40 h | 48 h | 56 h | 64 h | 72 h
10 µM | 0.876 | 0.7942 | 0.765 | 0.743 | 0.705 | 0.672 | 0.656 | 0.628 | 0.626
100 µM | 0.921 | 0.875 | 0.857 | 0.8155 | 0.747 | 0.707 | 0.719 | 0.685 | 0.694

relative JC-1 red fluorescence
Conditions | 8 h | 16 h | 24 h | 32 h | 40 h | 48 h | 56 h | 64 h | 72 h
10 µM, coculture fibroblast: C12385 | 0.845 | 0.7259 | 0.743 | 0.66 | 0.608 | 0.58 | 0.549 | 0.537 | 0.53
10 µM, coculture fibroblast: H6013 | 0.846 | 0.81 | 0.776 | 0.767 | 0.749 | 0.748 | 0.732 | 0.725 | 0.707
10 µM, coculture fibroblast: H6019 | 0.796 | 0.718 | 0.688 | 0.59 | 0.557 | 0.53 | 0.502 | 0.494 | 0.476
10 µM, coculture fibroblast: H6076 | 0.919 | 0.85578 | 0.805 | 0.785 | 0.736 | 0.738 | 0.699 | 0.692 | 0.686
10 µM, coculture fibroblast: H6231 | 0.9222 | 0.8432 | 0.797 | 0.765 | 0.699 | 0.68 | 0.629 | 0.595 | 0.584
10 µM, coculture fibroblast: HADF | 0.87 | 0.801 | 0.743 | 0.692 | 0.647 | 0.616 | 0.575 | 0.553 | 0.521
10 µM, coculture fibroblast: HCFa | 0.85 | 0.845 | 0.809 | 0.774 | 0.726 | 0.702 | 0.671 | 0.665 | 0.64
10 µM, coculture fibroblast: HCPF | 0.943 | 0.866 | 0.794 | 0.745 | 0.692 | 0.6532 | 0.621 | 0.575 | 0.545
10 µM, coculture fibroblast: HHSteC | 0.884 | 0.851 | 0.807 | 0.778 | 0.752 | 0.724 | 0.698 | 0.67 | 0.637
10 µM, coculture fibroblast: HMF | 0.867 | 0.805 | 0.7608 | 0.748 | 0.696 | 0.672 | 0.636 | 0.62 | 0.595
10 µM, coculture fibroblast: HPFa | 0.901 | 0.819 | 0.7648 | 0.707 | 0.668 | 0.63 | 0.581 | 0.559 | 0.518
10 µM, coculture fibroblast: HUF | 0.90381 | 0.7744 | 0.8152 | 0.714 | 0.6694 | 0.6533 | 0.6214 | 0.626 | 0.62
10 µM, coculture fibroblast: Hs27A | 0.9001 | 0.8483 | 0.8162 | 0.7894 | 0.742 | 0.718 | 0.6727 | 0.663 | 0.612
10 µM, coculture fibroblast: Hs343T | 0.884 | 0.804 | 0.776 | 0.782 | 0.728 | 0.715 | 0.674 | 0.664 | 0.655
10 µM, coculture fibroblast: WS1 | 0.807 | 0.761 | 0.755 | 0.665 | 0.604 | 0.591 | 0.553 | 0.547 | 0.532
100 µM, coculture fibroblast: C12385 | 0.84 | 0.827 | 0.815 | 0.763 | 0.699 | 0.681 | 0.669 | 0.658 | 0.658
100 µM, coculture fibroblast: H6013 | 0.919 | 0.936 | 0.8898 | 0.845 | 0.84 | 0.857 | 0.801 | 0.857 | 0.858
100 µM, coculture fibroblast: H6019 | 0.824 | 0.8 | 0.8007 | 0.731 | 0.711 | 0.72 | 0.715 | 0.7209 | 0.7176
100 µM, coculture fibroblast: H6076 | 0.95 | 0.923 | 0.925 | 0.939 | 0.912 | 0.925 | 0.918 | 0.925 | 0.938
100 µM, coculture fibroblast: H6231 | 0.95946 | 0.921 | 0.89 | 0.842 | 0.774 | 0.758 | 0.733 | 0.72 | 0.708
100 µM, coculture fibroblast: HADF | 0.957 | 0.895 | 0.977 | 0.951 | 0.937 | 0.936 | 0.92 | 0.92 | 0.897
100 µM, coculture fibroblast: HCFa | 0.911 | 0.927 | 0.92 | 0.878 | 0.847 | 0.864 | 0.866 | 0.877 | 0.871
100 µM, coculture fibroblast: HCPF | 0.953 | 0.899 | 0.884 | 0.846 | 0.766 | 0.742 | 0.736 | 0.695 | 0.676
100 µM, coculture fibroblast: HHSteC | 0.944 | 0.953 | 0.945 | 0.928 | 0.924 | 0.92 | 0.917 | 0.888 | 0.874
100 µM, coculture fibroblast: HMF | 0.9359 | 0.9195 | 0.9147 | 0.885 | 0.8226 | 0.79 | 0.801 | 0.7854 | 0.7762
100 µM, coculture fibroblast: HPFa | 0.9382 | 0.9542 | 0.936 | 0.914 | 0.915 | 0.935 | 0.934 | 0.957 | 0.921
100 µM, coculture fibroblast: HUF | 0.867 | 0.807 | 0.793 | 0.7023 | 0.639 | 0.6 | 0.562 | 0.554 | 0.553
100 µM, coculture fibroblast: Hs27A | 0.9271 | 0.939 | 0.938 | 0.922 | 0.8931 | 0.923 | 0.903 | 0.895 | 0.851
100 µM, coculture fibroblast: Hs343T | 0.968 | 0.922 | 0.894 | 0.847 | 0.77 | 0.747 | 0.718 | 0.7138 | 0.707
100 µM, coculture fibroblast: WS1 | 0.84 | 0.813 | 0.798 | 0.706 | 0.642 | 0.637 | 0.62 | 0.621 | 0.615
